# Results as given in the supplement of paper PMC8728848.
# This is one part of the list.
# B1: PX9961Q-bfa-504-27-504 (Bacteroides fragilis) (protein)
# chain: NDWLDRKPADGIPSEDAITNYNDALTARTGMYDGIQGNSNATSYYGARMFYYGDVRADDMQARTQGMRSSSCYEMLYTVDDAPNMWNIPYNVIRRANRLIEAINEKKVTDATEAQIGKIYSEALVVRALVHFDLVRIYGMPYTADNGASLGVPVIVKPLERNDLPSRNTVAEVYTQVITDLTDAINSGYLAKDQTPGYINEWAAKALLTRVYLTKGDNENALKVAEDIITNSPYKLWTNEEYVNAWYKSNGAHTNEMIFEVVNASNDDWTDRNGIAYLLNENGYADAIVTKSFMNMLSQDPKDVRIGMVLPAQYDKDLQEEYGDAKIFINKFPADKDDVGEMRLNNLPLLRLSEVYLSAAEAAAKLGGHQDKAAKYLNEIVQRANPEAKAISEADATVERIILERRKEMIGEGQRYFDALRNNETIVRYKDEGDKGYHYSLIKESQSFDRTYFRAILPIPVDETNVNPNLRAQQNPGY
# How the values were obtained:
# Assay in all cases: glycan array binding signal (z-score within array); higher = stronger binding
# Details in all cases: glycan notation: IUPAC condensed, linker removed
# [1] = molecular target: Gal(b1-4)GlcNAc(b1-3)Gal(b1-4)GlcNAc(b1-3)Gal(b1-4)GlcNAc(b1-3)Gal(b1-4)GlcNAc(b1-2)Man(a1-3)[Gal(b1-4)GlcNAc(b1-3)Gal(b1-4)GlcNAc(b1-3)Gal(b1-4)GlcNAc(b1-3)Gal(b1-4)GlcNAc(b1-2)Man(a1-6)]Man(b1-4)GlcNAc(b1-4)[Fuc(a1-6)]GlcNAc
# Method in brief: (§1)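 From the Consortium for Functional Glycomics database, 3228 arrays were curated, keeping only those whose protein sequence was available. Binding is given as a within-array Z-score averaged across arrays sharing a protein sequence and across linkers. Negative Z-scores can be read as non-binding.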
# [2] = molecular target: Gal(b1-4)GlcNAc(b1-3)Gal(b1-4)GlcNAc(b1-3)Gal(b1-4)GlcNAc(b1-3)Gal(b1-4)GlcNAc(b1-2)[Gal(b1-4)GlcNAc(b1-3)Gal(b1-4)GlcNAc(b1-3)Gal(b1-4)GlcNAc(b1-3)Gal(b1-4)GlcNAc(b1-6)]Man(a1-6)[Gal(b1-4)GlcNAc(b1-3)Gal(b1-4)GlcNAc(b1-3)Gal(b1-4)GlcNAc(b1-3)Gal(b1-4)GlcNAc(b1-2)Man(a1-3)]Man(b1-4)GlcNAc(b1-4)[Fuc(a1-6)]GlcNAc
# Method in brief: as §1
# [3] = molecular target: Gal(b1-4)GlcNAc(b1-3)Gal(b1-4)GlcNAc(b1-3)Gal(b1-4)GlcNAc(b1-3)Gal(b1-4)GlcNAc(b1-3)Gal(b1-4)GlcNAc(b1-2)Man(a1-3)[Gal(b1-4)GlcNAc(b1-3)Gal(b1-4)GlcNAc(b1-3)Gal(b1-4)GlcNAc(b1-3)Gal(b1-4)GlcNAc(b1-3)Gal(b1-4)GlcNAc(b1-2)Man(a1-6)]Man(b1-4)GlcNAc(b1-4)GlcNAc
# Method in brief: as §1
# [4] = molecular target: Gal(b1-4)GlcNAc(b1-3)Gal(b1-4)GlcNAc(b1-3)Gal(b1-4)GlcNAc(b1-3)Gal(b1-4)GlcNAc(b1-3)Gal(b1-4)GlcNAc(b1-2)Man(a1-3)[Gal(b1-4)GlcNAc(b1-3)Gal(b1-4)GlcNAc(b1-3)Gal(b1-4)GlcNAc(b1-3)Gal(b1-4)GlcNAc(b1-3)Gal(b1-4)GlcNAc(b1-2)Man(a1-6)]Man(b1-4)GlcNAc(b1-4)[Fuc(a1-6)]GlcNAc
# Method in brief: as §1
# [5] = molecular target: Gal(b1-4)GlcNAc(b1-3)Gal(b1-4)GlcNAc(b1-3)Gal(b1-4)GlcNAc(b1-3)Gal(b1-4)GlcNAc(b1-3)Gal(b1-4)GlcNAc(b1-2)[Gal(b1-4)GlcNAc(b1-3)Gal(b1-4)GlcNAc(b1-3)Gal(b1-4)GlcNAc(b1-3)Gal(b1-4)GlcNAc(b1-3)Gal(b1-4)GlcNAc(b1-6)]Man(a1-6)[Gal(b1-4)GlcNAc(b1-3)Gal(b1-4)GlcNAc(b1-3)Gal(b1-4)GlcNAc(b1-3)Gal(b1-4)GlcNAc(b1-3)Gal(b1-4)GlcNAc(b1-2)Man(a1-3)]Man(b1-4)GlcNAc(b1-4)[Fuc(a1-6)]GlcNAc
# Method in brief: as §1
# [6] = molecular target: Gal(b1-4)GlcNAc(b1-3)Gal(b1-4)GlcNAc(b1-3)Gal(b1-4)GlcNAc(b1-3)Gal(b1-4)GlcNAc(b1-3)Gal(b1-4)GlcNAc(b1-3)Gal(b1-4)GlcNAc(b1-2)Man(a1-3)[Gal(b1-4)GlcNAc(b1-3)Gal(b1-4)GlcNAc(b1-3)Gal(b1-4)GlcNAc(b1-3)Gal(b1-4)GlcNAc(b1-3)Gal(b1-4)GlcNAc(b1-3)Gal(b1-4)GlcNAc(b1-2)Man(a1-6)]Man(b1-4)GlcNAc(b1-4)GlcNAc
# Method in brief: as §1
# [7] = molecular target: Gal(b1-4)GlcNAc(b1-3)Gal(b1-4)GlcNAc(b1-3)GalNAc
# Method in brief: as §1
# [8] = molecular target: Gal(b1-4)GlcNAc(b1-3)Gal(b1-4)GlcNAc(b1-3)[Gal(b1-4)GlcNAc(b1-3)Gal(b1-4)GlcNAc(b1-6)]GalNAc
# Method in brief: as §1
# [9] = molecular target: Gal(b1-4)GlcNAc(b1-3)Gal(b1-4)GlcNAc(b1-6)[Gal(b1-3)]GalNAc
# Method in brief: as §1
# [10] = molecular target: Gal(b1-4)GlcNAc(b1-3)Gal(b1-4)[Fuc(a1-3)]GlcNAc(b1-3)Gal(b1-4)[Fuc(a1-3)]GlcNAc
# Method in brief: as §1
# [11] = molecular target: Gal(b1-4)GlcNAc(b1-3)GalNAc
# Method in brief: as §1
# [12] = molecular target: Gal(b1-4)GlcNAc(b1-3)[Fuc(a1-3)GlcNAc(b1-6)]Gal(b1-4)Glc
# Method in brief: as §1
# [13] = molecular target: Gal(b1-4)GlcNAc(b1-3)[Gal(b1-4)GlcNAc(b1-6)]Gal(b1-4)GlcNAc
# Method in brief: as §1
# [14] = molecular target: Gal(b1-4)GlcNAc(b1-3)[GlcNAc(b1-6)]Gal(b1-4)GlcNAc
# Method in brief: as §1
# [15] = molecular target: Gal(b1-4)GlcNAc(b1-6)Gal(b1-4)GlcNAc
# Method in brief: as §1
# [16] = molecular target: Gal(b1-4)GlcNAc(b1-6)GalNAc
# Method in brief: as §1
# [17] = molecular target: Gal(b1-4)GlcNAc(b1-6)[Gal(b1-3)]GalNAc
# Method in brief: as §1
# [18] = molecular target: Gal(b1-4)GlcNAc(b1-6)[Gal(b1-4)GlcNAc(b1-3)]GalNAc
# Method in brief: as §1
# Gal(b1-4)GlcNAc6P = molecular target: Gal(b1-4)GlcNAc6P
# Method in brief: as §1
# Gal(b1-6)Gal = molecular target: Gal(b1-6)Gal
# Method in brief: as §1
# Gal3S(b1-3)GalNAc = molecular target: Gal3S(b1-3)GalNAc
# Method in brief: as §1
# Gal3S(b1-3)GlcNAc = molecular target: Gal3S(b1-3)GlcNAc
# Method in brief: as §1
# [19] = molecular target: Gal3S(b1-3)[Fuc(a1-4)]GlcNAc
# Method in brief: as §1
# Gal3S(b1-4)Glc = molecular target: Gal3S(b1-4)Glc
# Method in brief: as §1
# Gal3S(b1-4)Glc6S = molecular target: Gal3S(b1-4)Glc6S
# Method in brief: as §1
# Gal3S(b1-4)GlcNAc = molecular target: Gal3S(b1-4)GlcNAc
# Method in brief: as §1
# [20] = molecular target: Gal3S(b1-4)[Fuc(a1-3)]Glc6S
# Method in brief: as §1
# [21] = molecular target: Gal3S(b1-4)[Fuc(a1-3)]GlcNAc
# Method in brief: as §1
# [22] = molecular target: Gal3S(b1-4)[Fuc(a1-3)]GlcNAc6S
# Method in brief: as §1
# Gal3S4S(b1-4)GlcNAc = molecular target: Gal3S4S(b1-4)GlcNAc
# Method in brief: as §1
# Gal3S6S(b1-4)GlcNAc = molecular target: Gal3S6S(b1-4)GlcNAc
# Method in brief: as §1
# Gal3S6S(b1-4)GlcNAc6S = molecular target: Gal3S6S(b1-4)GlcNAc6S
# Method in brief: as §1
# Gal4S(b1-4)GlcNAc = molecular target: Gal4S(b1-4)GlcNAc
# Method in brief: as §1
# Gal4S6S(b1-4)GlcNAc = molecular target: Gal4S6S(b1-4)GlcNAc
# Method in brief: as §1
# Gal6P(b1-4)GlcNAc = molecular target: Gal6P(b1-4)GlcNAc
# Method in brief: as §1
# Gal6S(b1-3)GlcNAc = molecular target: Gal6S(b1-3)GlcNAc
# Method in brief: as §1
# Gal6S(b1-3)GlcNAc6S = molecular target: Gal6S(b1-3)GlcNAc6S
# Method in brief: as §1
# Gal6S(b1-4)Glc = molecular target: Gal6S(b1-4)Glc
# Method in brief: as §1
binder,measurement,setting,value
B1,glycan array binding signal (z-score),[1],0.085
same,glycan array binding signal (z-score),[2],-0.629
same,glycan array binding signal (z-score),[3],0.85
same,glycan array binding signal (z-score),[4],0.281
same,glycan array binding signal (z-score),[5],-0.112
same,glycan array binding signal (z-score),[6],1.31
same,glycan array binding signal (z-score),[7],-0.212
same,glycan array binding signal (z-score),[8],-0.269
same,glycan array binding signal (z-score),[9],0.674
same,glycan array binding signal (z-score),[10],-0.284
same,glycan array binding signal (z-score),[11],-0.431
same,glycan array binding signal (z-score),[12],0.415
same,glycan array binding signal (z-score),[13],0.572
same,glycan array binding signal (z-score),[14],0.193
same,glycan array binding signal (z-score),[15],0.486
same,glycan array binding signal (z-score),[16],0.056
same,glycan array binding signal (z-score),[17],-0.289
same,glycan array binding signal (z-score),[18],-0.718
same,glycan array binding signal (z-score),Gal(b1-4)GlcNAc6P,0.015
same,glycan array binding signal (z-score),Gal(b1-6)Gal,0.122
same,glycan array binding signal (z-score),Gal3S(b1-3)GalNAc,-0.809
same,glycan array binding signal (z-score),Gal3S(b1-3)GlcNAc,-0.053
same,glycan array binding signal (z-score),[19],-0.484
same,glycan array binding signal (z-score),Gal3S(b1-4)Glc,0.8
same,glycan array binding signal (z-score),Gal3S(b1-4)Glc6S,-0.255
same,glycan array binding signal (z-score),Gal3S(b1-4)GlcNAc,0.727
same,glycan array binding signal (z-score),[20],-0.067
same,glycan array binding signal (z-score),[21],0.249
same,glycan array binding signal (z-score),[22],0.804
same,glycan array binding signal (z-score),Gal3S4S(b1-4)GlcNAc,-0.278
same,glycan array binding signal (z-score),Gal3S6S(b1-4)GlcNAc,-0.221
same,glycan array binding signal (z-score),Gal3S6S(b1-4)GlcNAc6S,-0.031
same,glycan array binding signal (z-score),Gal4S(b1-4)GlcNAc,-0.388
same,glycan array binding signal (z-score),Gal4S6S(b1-4)GlcNAc,-0.48
same,glycan array binding signal (z-score),Gal6P(b1-4)GlcNAc,-0.405
same,glycan array binding signal (z-score),Gal6S(b1-3)GlcNAc,-0.708
same,glycan array binding signal (z-score),Gal6S(b1-3)GlcNAc6S,0.217
same,glycan array binding signal (z-score),Gal6S(b1-4)Glc,-0.185

# Retrieved one by one from the list above:
binder,measurement,setting,value
B1,glycan array binding signal (z-score),Gal3S(b1-4)Glc,0.8
same,glycan array binding signal (z-score),Gal3S6S(b1-4)GlcNAc,-0.221
